According to publication doi:10.1101/2020.02.12.945162:
No constants are given. Whether binding was seen depends on the method and setting. Binding seen in cells or lysates may run through a third protein. Some binding calls cover weakened binding; strength is not graded here.

Sequences of proteins named here, by UniProt entry; tags and fusion partners are left off. A change or cut given only in a name is not applied to a line headed by its entry. A line that says so, or that is headed by a name, gives the form on record, which may keep a tag or linker. Residues count along the entry.
UniProt Q9NR31, residues 18-198: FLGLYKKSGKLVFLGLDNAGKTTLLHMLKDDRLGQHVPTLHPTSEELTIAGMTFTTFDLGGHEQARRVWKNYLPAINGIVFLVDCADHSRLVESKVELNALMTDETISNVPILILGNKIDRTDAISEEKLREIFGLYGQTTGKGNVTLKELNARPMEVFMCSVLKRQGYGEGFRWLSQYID
Sec23A (COPII subunit) of rat liver cytosol (B5DFC3, form named): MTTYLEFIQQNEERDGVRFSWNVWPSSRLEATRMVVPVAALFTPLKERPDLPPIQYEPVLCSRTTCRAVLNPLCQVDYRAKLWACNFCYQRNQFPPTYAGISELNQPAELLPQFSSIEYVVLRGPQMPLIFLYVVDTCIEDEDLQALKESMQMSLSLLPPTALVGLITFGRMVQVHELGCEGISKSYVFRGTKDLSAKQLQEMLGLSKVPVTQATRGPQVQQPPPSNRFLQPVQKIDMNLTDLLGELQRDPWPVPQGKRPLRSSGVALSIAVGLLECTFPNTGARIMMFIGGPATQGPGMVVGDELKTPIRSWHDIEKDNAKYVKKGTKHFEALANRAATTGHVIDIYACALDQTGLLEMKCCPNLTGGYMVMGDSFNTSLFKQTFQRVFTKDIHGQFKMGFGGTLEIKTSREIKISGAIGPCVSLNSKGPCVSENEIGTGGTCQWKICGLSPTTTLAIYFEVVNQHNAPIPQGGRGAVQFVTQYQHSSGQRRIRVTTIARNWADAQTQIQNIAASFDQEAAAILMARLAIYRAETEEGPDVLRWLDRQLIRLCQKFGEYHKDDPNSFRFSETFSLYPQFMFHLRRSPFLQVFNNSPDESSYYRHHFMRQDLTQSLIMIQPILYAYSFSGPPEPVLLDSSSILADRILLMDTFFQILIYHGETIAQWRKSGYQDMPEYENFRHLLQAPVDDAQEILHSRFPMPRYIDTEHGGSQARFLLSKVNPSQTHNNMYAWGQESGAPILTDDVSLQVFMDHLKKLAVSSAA

Target: GST-tagged human Sar1A depleted of its N-terminal amphipathic helix (GST-Sar1A^Δ1-17) (human) (UniProt Q9NR31)
Test: pull-down

binding: binds
Substance: Sec23A (COPII subunit) of rat liver cytosol (from UniProt B5DFC3 1-765)
